Assay results published in PubChem BioAssay AID248 (DTP/NCI, 2004).
The list does not hold the whole screen: it is rich in T/C values a quarter to a half above the control, in often repeated tests (any T/C) and in doses without a T/C. Other doses and runs of a compound stand elsewhere. T/C gives the treated animals as a percentage of the vehicle group. Some doses have a count of surviving animals in place of a T/C: the source holds a T/C of zero for them, seemingly a mark for toxic or unscored doses. Some survivor counts are full or nearly so, which does not show that the dose was tolerated: survival well below the control is almost never listed, so the zero probably covers shortened survival too. Survivors were counted at the toxicity check, usually on the fifth day, unless a day is given; later deaths do not show. Schedule codes are those of the source, read here as Q, the interval in days (D) or hours (H), X, the number of doses. Some entries were tested several times; their values stand side by side, smallest first. For survival time, this PubChem deposit counts one and a half times the control or more as active, and values a quarter to a half above the control carry no call in these data; other NCI protocols may use other cut-offs. Some T/C values are followed by the survivors on the day toxicity was checked, most often the fifth; without a count, all were alive then.

System: L1210 leukemia ip in BDF1 mice, survival T/C
Test: NCI In Vivo Anticancer Drug Screen. Data for tumor model L1210 Leukemia (intraperitoneal) in B6D2F1 (BDF1) mice
Conditions: T/C endpoint: mean survival time, higher T/C = longer survival
[1] = dose: 100.0 mg/kg/injection, schedule: Q01DX009 (ip), vehicle: saline with Tween-80
[2] = dose: 200.0 mg/kg/injection, schedule: Q01DX009 (ip), vehicle: Klucel (hydroxypropylcellulose) (HPC)
[3] = dose: 400.0 mg/kg/injection, schedule: Q01DX009 (ip), vehicle: Klucel (hydroxypropylcellulose) (HPC)
[4] = dose: 400.0 mg/kg/injection, schedule: Q04DX003 (ip), vehicle: saline
[5] = dose: 200.0 mg/kg/injection, schedule: Q01DX009 (ip), vehicle: saline with Tween-80
[6] = dose: 400.0 mg/kg/injection, schedule: Q04DX003 (ip), vehicle: saline with Tween-80
[7] = dose: 400.0 mg/kg/injection, schedule: Q01DX001 (ip), vehicle: carboxymethylcellulose (CMC)
[8] = dose: 400.0 mg/kg/injection, schedule: Q01DX009 (ip), vehicle: saline with Tween-80
[9] = dose: 400.0 mg/kg/injection, schedule: Q01DX001 (ip), vehicle: saline
[10] = dose: 100.0 mg/kg/injection, schedule: Q01DX009 (ip), vehicle: Klucel (hydroxypropylcellulose) (HPC)
[11] = dose: 200.0 mg/kg/injection, schedule: Q01DX001 (ip), vehicle: Klucel (hydroxypropylcellulose) (HPC)
[12] = dose: 400.0 mg/kg/injection, schedule: Q01DX001 (ip), vehicle: Klucel (hydroxypropylcellulose) (HPC)
[13] = dose: 25.0 mg/kg/injection, schedule: Q01DX009 (ip), vehicle: saline

With `ClCCC[S][Pb]([c]1ccccc1)([c]1ccccc1)[c]1ccccc1` the survivor count (dose: 100.0 mg/kg/injection, schedule: Q04DX002 (sc), vehicle: olive oil, sesame oil, peanut oil) was 2 of 3.
In the case of `c1ccc2c(C(CCN3CCOCC3)(CCN3CCOCC3)CNC3=NCCN3)cccc2c1`, the survivor count (dose: 50.0 mg/kg/injection, schedule: Q01DX009 (ip), vehicle: saline with Tween-80) was 3 of 6 and the survivor count [1] was 2 of 6.
For `O=C1CSc2cc[nH]c21`, the survivor count [2] was 5 of 6 and the survivor count [3] was 0 of 6.
`CCSC1=C(SCC)C(=O)C(SCC)=C(SCC)C1=O` was tested, and the survivor count [1] was 6 of 6.
With `CC(/C=N/NC(N)=S)Cc1ccc(C(C)C)cc1` (centres undefined) the survivor count (dose: 25.0 mg/kg/injection, schedule: Q04DX003 (ip), vehicle: saline with Tween-80) was 1 of 6, the survivor count (dose: 40.0 mg/kg/injection, schedule: Q01DX009 (ip), vehicle: alcohol) was 5 of 6 and the survivor count (dose: 50.0 mg/kg/injection, schedule: Q04DX003 (ip), vehicle: saline with Tween-80) was 0 of 6.
`CCCCC(CCN(C)C)(CNC(=O)CN(CC)CC)c1cccc2ccccc12` (centres undefined) was tested, and the survivor count (dose: 200.0 mg/kg/injection, schedule: Q04DX003 (ip), vehicle: saline) was 4 of 6 and the survivor count [4] was 0 of 6.
`CC(C)CCOc1ccc(N)c([N+](=O)[O-])c1` was tested, and the survivor count [1] was 0 of 6, the survivor count [5] was 0 of 6 and the survivor count [6] was 3 of 6.
For `CC(C)(CBr)COS(=O)(=O)c1ccc(Br)cc1`, the survivor count [5] was 3 of 3.
With `CC(=O)OC1=CC(=O)c2ccccc2C1=O` the survivor count (dose: 50.0 mg/kg/injection, schedule: Q01DX001 (ip), vehicle: carboxymethylcellulose (CMC)) was 2 of 4, the survivor count (dose: 200.0 mg/kg/injection, schedule: Q01DX001 (ip), vehicle: carboxymethylcellulose (CMC)) was 0 of 4 and the survivor count [7] was 0 of 4.
With `S=C(NCCN1CCCC1)Nc1ccccc1` the survivor count [2] was 2 of 6 and the survivor count [3] was 0 of 6.
`CCCC(C)(O)C#CC(C)(O)CCC` (centres undefined) was tested, and the survivor count [6] was 0 of 6.
In the case of `O=C(O)CSc1nc2ccccc2s1`, the survivor count [5] was 3 of 6 and the survivor count [8] was 6 of 6.
For `O=C(O)c1ccc(Br)s1`, the survivor count [9] was 0 of 4.
`c1ccc2c3c(sc2c1)CNCC3` was tested, and the survivor count [10] was 3 of 6.
With `O=C(NC(=S)Nc1cccc(Cl)c1)c1ccc(Cl)cc1Cl` the survivor count [10] was 3 of 3, the survivor count [11] was 6 of 6 and the survivor count [12] was 6 of 6.
For `COc1cc(C)c2oc(C)nc2c1`, the survivor count [11] was 6 of 6.
With `[CH3][Sn]([CH3])([CH3])[CH2]CCBr` the survivor count (dose: 6.25 mg/kg/injection, schedule: Q01DX009 (ip), vehicle: saline) was 1 of 3, the survivor count (dose: 12.5 mg/kg/injection, schedule: Q01DX009 (ip), vehicle: saline) was 0 of 3 and the survivor count [13] was 0 of 3. The survivor count (dose: 100.0 mg/kg/injection, schedule: Q01DX009 (ip), vehicle: saline) was 3 of 3, the survivor count (dose: 200.0 mg/kg/injection, schedule: Q01DX009 (ip), vehicle: saline) was 2 of 3 and the survivor count (dose: 400.0 mg/kg/injection, schedule: Q01DX009 (ip), vehicle: saline) was 0 of 3.
For `CC1CN1CCS(=O)(=O)CCN1CC1C` (centres undefined), the T/C (dose: 2.5 mg/kg/injection, schedule: Q01DX015 (ip), vehicle: carboxymethylcellulose (CMC)) was 129 % of control, the T/C (dose: 5.0 mg/kg/injection, schedule: Q01DX015 (ip), vehicle: carboxymethylcellulose (CMC)) was 128 % of control [5 of 6 alive] and the survivor count (dose: 20.0 mg/kg/injection, schedule: Q01DX015 (ip), vehicle: carboxymethylcellulose (CMC)) was 5 of 6. The survivor count (dose: 40.0 mg/kg/injection, schedule: Q01DX015 (ip), vehicle: carboxymethylcellulose (CMC)) was 2 of 6.
In the case of `O=C(O)CCN(CCC(=O)O)CCC(=O)O`, the T/C [1] was 139 % of control.
For `Cc1ccc(Cl)cc1NC(=O)N1CCN(c2ccccc2)CC1`, the survivor count (dose: 100.0 mg/kg/injection, schedule: Q04DX002 (ip), vehicle: saline with Tween-80) was 6 of 6 and the survivor count [8] was 6 of 6.
For `CC(C)(C)c1ccc(OCC(=O)O)c(Cl)c1`, the survivor count [8] was 0 of 6.
In the case of `CS(=O)(=O)c1ncc2cnccn12`, the T/C (dose: 200.0 mg/kg/injection, schedule: Q04DX003 (ip), vehicle: water) was 137 % of control and the survivor count (dose: 400.0 mg/kg/injection, schedule: Q01DX009 (ip), vehicle: water) was 3 of 6.
With `CC[N+](C)(CC)CCCOC(=O)c1ccccc1Oc1ccc(C)cc1` the survivor count [4] was 0 of 6.
`O=C(N/N=C/c1ccc(Cl)cc1Cl)c1ccccc1` was tested, and the survivor count (dose: 400.0 mg/kg/injection, schedule: Q04DX003 (ip), vehicle: Klucel (hydroxypropylcellulose) (HPC)) was 6 of 6.
With `Cc1ccc(Oc2cccc3c[n+](C)ccc23)cc1` the survivor count (dose: 100.0 mg/kg/injection, schedule: Q04DX002 (ip), vehicle: DMSO) was 3 of 3, the survivor count (dose: 200.0 mg/kg/injection, schedule: Q04DX002 (ip), vehicle: DMSO) was 3 of 3 and the survivor count (dose: 400.0 mg/kg/injection, schedule: Q04DX002 (ip), vehicle: DMSO) was 0 of 3.
`CCC1(Cc2ccccc2)C(=O)NC(=S)N(C)C1=O` (centres undefined) was tested, and the survivor count (dose: 150.0 mg/kg/injection, schedule: Q01DX001 (ip), vehicle: saline) was 1 of 6 and the survivor count (dose: 300.0 mg/kg/injection, schedule: Q01DX001 (ip), vehicle: saline) was 0 of 6.
In the case of `c1ccc([P+](Cc2ccc3c(c2)OCO3)(c2ccccc2)c2ccccc2)cc1`, the survivor count [13] was 5 of 6, the survivor count (dose: 50.0 mg/kg/injection, schedule: Q01DX009 (ip), vehicle: saline) was 0 of 6 and the survivor count (dose: 100.0 mg/kg/injection, schedule: Q01DX001 (ip), vehicle: saline) was 1 of 6. The survivor count (dose: 200.0 mg/kg/injection, schedule: Q01DX001 (ip), vehicle: saline) was 0 of 6 and the survivor count [9] was 0 of 6.
With `CC(=O)c1cc2ccccc2o1` the T/C (dose: 25.0 mg/kg/injection, schedule: Q04DX003 (ip), vehicle: water) was 126 % of control [9 of 10 alive].
`O=P(O)(O)OCC(O)CF` (centres undefined) was tested, and the survivor count (dose: 44.0 mg/kg/injection, schedule: Q01DX009 (ip), vehicle: saline with Tween-80) was 1 of 6, the survivor count (dose: 88.0 mg/kg/injection, schedule: Q01DX009 (ip), vehicle: saline with Tween-80) was 0 of 6 and the survivor count (dose: 175.0 mg/kg/injection, schedule: Q01DX009 (ip), vehicle: saline with Tween-80) was 0 of 6. The survivor count (dose: 175.0 mg/kg/injection, schedule: Q04DX003 (ip), vehicle: saline) was 1 of 6 and the survivor count (dose: 262.5 mg/kg/injection, schedule: Q04DX003 (ip), vehicle: saline) was 0 of 6.
In the case of `O=c1cnc2ccccc2[nH]1`, the survivor count [6] was 3 of 3.
For `CCCCOP(=O)(/C=C\c1ccccn1)OCCCC`, the survivor count (dose: 400.0 mg/kg/injection, schedule: Q04DX002 (ip), vehicle: carboxymethylcellulose (CMC)) was 1 of 3 and 3 of 6.
`N#Cc1cc(-c2ccccc2)c[nH]c1=O` was tested, and the survivor count [11] was 0 of 6 and the survivor count [12] was 0 of 6.
With `O=P(CCCCCCP(=O)(N1CC1)N1CC1)(N1CC1)N1CC1` the T/C (dose: 100.0 mg/kg/injection, schedule: Q01DX009 (ip), vehicle: carboxymethylcellulose (CMC)) was 138 and 148 % of control and the survivor count [7] was 3 of 4.
